Data published in US20160186196A1 (priority 2009, published 2016).

Test system: C. reinhardtii UTEX 2244 and transformants
Experiment: Rose Bengal photooxidative stress kill curves in liquid culture
Format: cell-based, Chlamydomonas reinhardtii
Details: 2 μM, after exposure to light
Procedure: Exposure of C. reinhardtii to Rose Bengal was performed as follows. In order to induce apoptosis in C. reinhardtii by the mechanism of photooxidative stress, algal cells were grown on solid medium containing various concentrations of the photosensitizing dye Rose Bengal as described in Fischer et al. (Plant Sci, 168:747-759 (2005)). Duplicate plates with RB levels as high as up to 2.0 μM were initially spread with 1×10^3 cells and resulting colonies were counted after a: period of one week. UTEX 2244 was used as a control. Cell viability is reported as a percentage of surviving cells. Additionally, kill curves were conducted in liquid culture using 100-ml stirrer flasks under the same cultivation conditions mentioned previously, with the exception of aeration. Each culture was seeded with an inoculum of exponentially growing cells (1×10^6 cells ml^−1) and the cell density was measured with a Zeiss Axiovert™ 100 inverted light microscope using a hemocytometer over a one-week period. In the experimental flasks, 100x RB dissolved in isopropanol stock solution was added three days after inoculation to cultures of approximately 0.2×10^6 cells ml^−1 in order achieve a final concentration of 2.0 μM; control flasks were unaltered.

O=C([O-])c1c(Cl)c(Cl)c(Cl)c(Cl)c1-c1c2cc(I)c(=O)c(I)c-2oc2c(I)c([O-])c(I)cc12.[Na+].[Na+] [Rose Bengal]
duration of activity in cultures: lost most activity by the third day
